Measurements published in PubChem BioAssay AID587 (National Center for Advancing Translational Sciences (NCATS), 2007).
Screen size: about 59,000 compounds; about 35 (0.06%) were called active. Inconclusive means that the source gave no clear call. Such entries were picked first, then a sample of the others. Cut-off read from the data, not from the text of the source: active = max dye-equivalent concentration above about 10 nM; inconclusive = between about 1.1 nM and that limit; inactive = weaker than that.

experiment: qHTS Assay for Spectroscopic Profiling in Texas Red Spectral Region; details: Compound fluorescence, Texas Red channel, 547/618 nm; stronger effect = higher value
Description: NIH Molecular Libraries Screening Centers Network [MLSCN] NIH Chemical Genomics Center [NCGC] […] Occasionally, the artifactual effect may originate from the compound#s own spectral or other biophysical properties which generally tend to track its assay concentration. Pre-screening/profiling the library with respect to the compounds# spectral properties should help one exclude false positives early on. While the most informative fluorescent profiling data set is obtained by performing a full excitation and emission scan of each well by using a monochromator-based plate reader, such an approach is practical only on a very limited scale as scanning each well requires long time. An alternative approach, applied here, is to perform plate reader scans using selected excitation and emission wavelength pairs to generate a multidimensional relational database that correlates compound concentration and the respective relative fluorescence intensity at a given wavelength set. A standard curve of Texas Red (TR) present on each plate as six-point concentration series, was used to compute a normalized fluorescence response, termed dye-equivalent concentration, for each compound at each concentration.
NCGC Assay Protocol Summary: Buffer: 100 mM Tris buffer, pH 8.0 Dye standard plate: The wells in columns 1 through 4 of a Kalypsys polypropylene 1536-well compound plate were filled with standard solutions of fluorophore corresponding to the spectral region of interest. Solutions of TR were placed in the following wells: U1, V1: 3 mM, U2, V2: 300 uM, U3, V3: 30 uM, U4, V4: zero (DMSO), W1, X1: 3 uM, W2, X2: 900 nM, W3, X3: 300 nM, W4, X4: zero (DMSO). Assay Steps: Six uL of buffer were dispensed to 1536-well Greiner black plates. Compounds and dye standards (23 nL) were transferred via Kalypsys PinTool. The plates were incubated for 15 min at room temperature, and then read on ViewLux (Perkin-Elmer) High-throughput CCD imager using 547 nm and 618 nm excitation and emission filter set. Keywords: NIH Roadmap, MLSCN, MLI, MLSMR, qHTS, NCGC, Texas Red, Fluorescent Profiling.

Structure (SMILES)	max dye-equivalent concentration	outcome
CC(C)=CCC/C(C)=C/COc1c2ccoc2cc2oc(=O)ccc12	inactive	–
Cc1[nH]c(=O)c(C#N)cc1-c1ccncc1	inconclusive: 1.1 nM	–
CC1CC(C)CN(C(=O)COc2ccc(-c3nnco3)cc2)C1 (stereo not given)	inconclusive: 1.4 nM	–
COCCn1c(SCC(=O)NCc2cccs2)nnc1-c1ccc(OC)cc1	inconclusive: 1.1 nM	–
COc1ccc(CCNC[C@H](O)c2ccc(O)cc2)cc1OC	inactive	–
CN(C)CCC=C1c2ccccc2CCc2ccccc21	inconclusive: 1.2 nM	–
COCCNC(=O)CSc1nc2cc(OC)c(OC)cc2c(=O)n1Cc1ccco1	inconclusive: 1.3 nM	–
O=C(NCC1CCCO1)c1ccc(N2CCCCC2)nc1 (stereo not given)	inconclusive: 2.5 nM	–
O=c1cnn(-c2ccccc2)c(-c2ccccc2)c1	inconclusive: 1.4 nM	–
Cc1cccc(NC(=O)c2cc(S(=O)(=O)NCc3ccco3)ccc2F)c1C	inconclusive: 1.6 nM	–
CCCc1ncc(C(=O)c2ccc(OC)cc2)n1C	inconclusive: 1.1 nM	–
CCCCn1cc(SCC(=O)O)c2ccccc21	inactive	–
COC(=O)c1ccc(NC(=O)CSc2nncn2C)cc1	inconclusive: 1.4 nM	–
COc1ccc2c(CC(=O)OCC(=O)Nc3ccc4c(c3)OCO4)coc2c1	inconclusive: 2.4 nM	–
COC(=O)Oc1nsnc1N1CCOCC1	inconclusive: 1.5 nM	–
O=C(CCc1nc2ccccc2[nH]1)Nc1ccc(F)cc1	inconclusive: 1.4 nM	–
Cc1onc(-c2ccccc2Cl)c1C(=O)Nc1cc(=O)n(C)c(=O)n1C	inactive	–
Fc1ccc(-c2nn3c(C4COc5ccccc5O4)nnc3s2)cc1 (stereo not given)	inconclusive: 1.1 nM	–
CC1(C)OC(=O)CC1C(=O)NCc1ccccc1 (stereo not given)	inconclusive: 1.2 nM	–
Cc1ccc2c(c1)N(CC(=O)NCCc1c[nH]c3ccccc13)C(=O)CO2	inconclusive: 1.7 nM	–
CCCCn1c(SCC(=O)O)nc2ccccc21	inconclusive: 1.8 nM	–
CCOC(=O)C1=C(C)Nc2nnnn2C1c1c[nH]c2ccccc12 (stereo not given)	inconclusive: 2.5 nM	–
COc1cccc(-c2noc(N)c2C#N)c1	inconclusive: 1.2 nM	–

Structure (SMILES)	max dye-equivalent concentration	outcome
O=C(Cn1c(CC(=O)N2CCCC2)nc2ccccc21)NCc1ccccc1	inconclusive: 1.4 nM	–
CCOC(=O)c1cccc(NC(=O)CSc2nnc(-c3ccoc3C)n2CC)c1	inconclusive: 1.1 nM	–
Cn1c(=O)c2[nH]cnc2n(C)c1=O	inconclusive: 8.2 nM	–
CCOc1ncccc1C(=O)OCC(=O)N1CCN(S(=O)(=O)c2ccccc2)CC1	inconclusive: 1.9 nM	–
COc1ccccc1OCc1ccc(C(=O)N2CCN3CCCC3C2)cc1 (stereo not given)	inconclusive: 1.4 nM	–
O=C(Cc1cccs1)Nc1nc2ccccc2s1	inconclusive: 1.3 nM	–
CCC(C)(NC(=O)c1ccccn1)C(=O)NC1CCCCC1 (stereo not given)	inconclusive: 1.6 nM	–
CCOC(=O)c1c(N)n[nH]c1-c1ccc(OC)cc1	inconclusive: 1.5 nM	–
CS(=O)CCC(NS(=O)(=O)c1ccccc1)C(=O)O (stereo not given)	inconclusive: 1.1 nM	–
CCN1CC2=C(OC(N)=C(C#N)C2c2ccccc2)/C(=C\c2ccccc2)C1 (stereo not given)	inactive	–
CCc1ccc2oc(=O)cc(CN3CCC(C)CC3)c2c1	inconclusive: 1.6 nM	–
O=C(NCCc1ccc2c(c1)OCO2)C1CCN(S(=O)(=O)c2ccc(Cl)cc2)CC1	inconclusive: 1.2 nM	–
Cc1ccc(N(C(=O)CNC(=O)c2ccco2)C(C(=O)NCC2CCCO2)c2ccccc2)cc1 (stereo not given)	inconclusive: 1.7 nM	–
Cc1csc(C(C#N)C(=O)c2ccncc2)n1 (stereo not given)	inconclusive: 1.6 nM	–
Cc1ccnc(NC(=O)CN(C)S(=O)(=O)c2cccc3nsnc23)c1	inconclusive: 1.7 nM	–
O=C1N=C(O)CN1/N=C\c1ccc(-c2ccc([N+](=O)[O-])cc2)o1	inconclusive: 1.3 nM	inactive
CCCCCCC(=O)N(O)C1CC(=O)N(c2ccc(Br)cc2)C1=O (stereo not given)	inconclusive: 1.1 nM	–
Cc1ccc(Cn2c(=O)c3ccccc3n3c(SCC(=O)N4CCCCC4C)nnc23)cc1 (stereo not given)	inconclusive: 1.4 nM	–
COCCn1nnnc1C(c1cccs1)N1CCN(c2nc3ccccc3s2)CC1 (stereo not given)	inconclusive: 1.3 nM	–
O=C(NC1CCCCC1)N1CCC(n2cnc3ccccc32)CC1	inconclusive: 1.6 nM	–
c1ccc(-c2csc(N3CCCCCC3)n2)cc1	inconclusive: 2.2 nM	–
CCOC(=O)CSC1=C(C#N)C(c2sccc2C)CC(=O)N1 (stereo not given)	inconclusive: 1.7 nM	–
CC[C@H](Cc1c(I)cc(I)c(N)c1I)C(=O)O	inconclusive: 1.9 nM	–

Structure (SMILES)	max dye-equivalent concentration	outcome
COc1ccc(CNC(=O)C(c2ccco2)N(Cc2cccs2)C(=O)Cc2cccs2)cc1 (stereo not given)	inconclusive: 1.5 nM	–
CC(C)CN1CN(S(=O)(=O)c2cccs2)c2nc3ccccc3nc21	inconclusive: 2.2 nM	–
NC(=O)C1CCN(C(c2ccccc2F)c2nnnn2Cc2ccco2)CC1 (stereo not given)	inconclusive: 2.1 nM	–
O=C(Nc1ccc2c(c1)ncn2-c1ccccc1)c1ccco1	inconclusive: 1.1 nM	–
Cc1nc2[nH]c(=O)c3c(n2n1)NC1=C(C(=O)CC(C)(C)C1)C3c1ccc(F)cc1 (stereo not given)	inconclusive: 1.1 nM	–
[O-][N+]12CCN(CC1)c1ccccc12	inconclusive: 2 nM	–
Nc1nc(-c2cccnc2)nn1C(=O)CCc1ccccc1	inconclusive: 1.1 nM	–
O=C1Nc2cccnc2Sc2ccccc21	inconclusive: 1.1 nM	–
C/C(Cl)=C\Cn1c(Nc2cccc(C)c2)nc2c1c(=O)n(C)c(=O)n2C	inconclusive: 1.1 nM	–
CCOC(=O)N1CCN(S(=O)(=O)c2ccc(OCC)c3ccccc23)CC1	inconclusive: 1.1 nM	–
O=C(O)CCCCn1cnc2c(=S)nc[nH]c21	inactive	–
CCNC(=O)[C@@H]1O[C@@H](n2cnc3c(NCc4ccccc4)ncnc32)[C@@H](O)[C@H]1O	inactive	–
O=C(NCCCn1ccnc1)c1cn(-c2ccccc2)nc1-c1ccc(F)cc1	inconclusive: 2 nM	–
Cc1ccccc1CS(=O)(=O)Cc1ccc(C(=O)NCc2ccco2)o1	inconclusive: 1.3 nM	–
Cc1nn(Cc2ccccc2)c(Cl)c1C(=O)OC1CCOC1=O (stereo not given)	inconclusive: 1.2 nM	–
COc1cc2c3c(c1)/C(=C1/SC(NC(C)=O)=NC1=O)C(=O)N3C(C)(C)C=C2C	inconclusive: 1.1 nM	–
c1ccc(CSc2nnc3c4ccccc4c4ccccc4c3n2)cc1	inconclusive: 1.8 nM	–
NC(N)=NCc1cccc(I)c1	inconclusive: 1.4 nM	–
CC1=C(C#N)C(=O)OC(C)(C)C1	inactive	–
COC(=O)c1cc(OC)c(OC)cc1NC(=O)c1cnccn1	inconclusive: 1.1 nM	–
Cc1ccc(-n2c(CNc3ccc(F)cc3)nnc2SCC(=O)N2CCCC2)cc1	inconclusive: 1.2 nM	–
Cc1nc(SCc2nnc(-c3ccc(Cl)cc3)o2)c2c3c(sc2n1)CCC3	inactive	–
S=C1SCN(CCN2CCOCC2)CN1Cc1ccccc1	inconclusive: 1.2 nM	–

At a glance, 19 of the compounds above:
Structure (SMILES)	max dye-equivalent concentration	outcome
O=C(Nc1ccc2c(c1)ncn2-c1ccccc1)c1ccco1	inconclusive: 1.1 nM	–
Cc1nc2[nH]c(=O)c3c(n2n1)NC1=C(C(=O)CC(C)(C)C1)C3c1ccc(F)cc1 (stereo not given)	inconclusive: 1.1 nM	–
[O-][N+]12CCN(CC1)c1ccccc12	inconclusive: 2 nM	–
Nc1nc(-c2cccnc2)nn1C(=O)CCc1ccccc1	inconclusive: 1.1 nM	–
O=C1Nc2cccnc2Sc2ccccc21	inconclusive: 1.1 nM	–
C/C(Cl)=C\Cn1c(Nc2cccc(C)c2)nc2c1c(=O)n(C)c(=O)n2C	inconclusive: 1.1 nM	–
CCOC(=O)N1CCN(S(=O)(=O)c2ccc(OCC)c3ccccc23)CC1	inconclusive: 1.1 nM	–
O=C(O)CCCCn1cnc2c(=S)nc[nH]c21	inactive	–
CCNC(=O)[C@@H]1O[C@@H](n2cnc3c(NCc4ccccc4)ncnc32)[C@@H](O)[C@H]1O	inactive	–
O=C(NCCCn1ccnc1)c1cn(-c2ccccc2)nc1-c1ccc(F)cc1	inconclusive: 2 nM	–
Cc1ccccc1CS(=O)(=O)Cc1ccc(C(=O)NCc2ccco2)o1	inconclusive: 1.3 nM	–
Cc1nn(Cc2ccccc2)c(Cl)c1C(=O)OC1CCOC1=O (stereo not given)	inconclusive: 1.2 nM	–
COc1cc2c3c(c1)/C(=C1/SC(NC(C)=O)=NC1=O)C(=O)N3C(C)(C)C=C2C	inconclusive: 1.1 nM	–
c1ccc(CSc2nnc3c4ccccc4c4ccccc4c3n2)cc1	inconclusive: 1.8 nM	–
NC(N)=NCc1cccc(I)c1	inconclusive: 1.4 nM	–
CC1=C(C#N)C(=O)OC(C)(C)C1	inactive	–
COC(=O)c1cc(OC)c(OC)cc1NC(=O)c1cnccn1	inconclusive: 1.1 nM	–
Cc1ccc(-n2c(CNc3ccc(F)cc3)nnc2SCC(=O)N2CCCC2)cc1	inconclusive: 1.2 nM	–
Cc1nc(SCc2nnc(-c3ccc(Cl)cc3)o2)c2c3c(sc2n1)CCC3	inactive	–

Going on with the list:

Structure (SMILES)	max dye-equivalent concentration	outcome
CC1(C)Cc2cccc(OCC(=O)O)c2O1	inconclusive: 1.3 nM	–
CCN1CCc2c(C#N)c(NCc3ccccc3)nc(NCCO)c2C1	inconclusive: 1.3 nM	–
O=C1C=CC2=C3c4cc(O)c(O)cc4C[C@@]3(O)COC2=C1O	inconclusive: 1.4 nM	–
CC(=NCCCn1ccnc1)C1=C(O)c2ccccc2C1=O	inconclusive: 1.8 nM	–
COc1ccc2oc(=O)c(C(=O)N3CCN(c4ccccc4F)CC3)cc2c1	inactive	–
N#CC(=C(/N)Sc1ccccc1N)/C(C#N)=C(/N)Sc1ccccc1N	inactive	–
NS(=O)(=O)c1cccc2c1c([N+](=O)[O-])cc1nc(O)c(O)nc12	inconclusive: 1.2 nM	–
CCC(Oc1ccc2ccccc2c1)C(=O)O (stereo not given)	inconclusive: 1.1 nM	–
Cc1c(C)c2c(c(C)c1O)CC[C@@](C)(CN1CCN(c3cc(N4CCCC4)nc(N4CCCC4)n3)CC1)O2	inactive	–
CCCCCCCCCCCCCCCCCCNC(=O)OC[C@@H](COP(=O)([O-])OCC[n+]1ccsc1)OC	inconclusive: 1.1 nM	–
Cc1ccc(/C=C/C2=Cc3c(sc(NC(=O)CSc4n[nH]c(N)n4)c3C#N)C(C)(C)C2)o1	active: 59 nM	–
O=C(CCn1nc(-c2ccccc2)ccc1=O)N1CCOCC1	inconclusive: 2.4 nM	–
CCOC(=O)c1[nH]c2ccccc2c1NC(=O)c1ccc(Br)o1	inconclusive: 1.2 nM	–
COc1ccc(Cc2nnc(SCC(=O)NCc3ccco3)o2)cc1	inconclusive: 1.5 nM	–
O=C1c2ccccc2-c2ccc(NC(=O)[C@H]3CCCC[C@@H]3C(=O)O)cc21	inconclusive: 1.2 nM	–
O=c1cc(-c2ccccc2)nc2nc(COc3ccccc3)[nH]n12	inconclusive: 1.3 nM	–
O=C(Cn1cnc2c(nnn2Cc2ccc(F)cc2)c1=O)NC1CCCC1	inconclusive: 1.1 nM	–
Cc1ccc2[nH]c(=O)c(CN(CC3CCCO3)C(=O)c3ccco3)cc2c1 (stereo not given)	inconclusive: 1.5 nM	–
CCCSc1nnc2[nH]c(=O)cc(N)n12	inconclusive: 1.2 nM	–
CN1CCc2c(sc3c2C(=O)NC(c2cccs2)N3)C1 (stereo not given)	inconclusive: 1.5 nM	–
